Results are given in words; binding and its absence hold for the method and conditions named. In cells and extracts the contact can be indirect. These calls come from enrichment with a bait or labelling near it, and not all partners need be listed.

Sequences of proteins named here, by UniProt entry; tags and fusion partners are left off. A change or cut given only in a name is not applied to a line headed by its entry. Residues count along the entry.
UniProt O00478, residues 30-584: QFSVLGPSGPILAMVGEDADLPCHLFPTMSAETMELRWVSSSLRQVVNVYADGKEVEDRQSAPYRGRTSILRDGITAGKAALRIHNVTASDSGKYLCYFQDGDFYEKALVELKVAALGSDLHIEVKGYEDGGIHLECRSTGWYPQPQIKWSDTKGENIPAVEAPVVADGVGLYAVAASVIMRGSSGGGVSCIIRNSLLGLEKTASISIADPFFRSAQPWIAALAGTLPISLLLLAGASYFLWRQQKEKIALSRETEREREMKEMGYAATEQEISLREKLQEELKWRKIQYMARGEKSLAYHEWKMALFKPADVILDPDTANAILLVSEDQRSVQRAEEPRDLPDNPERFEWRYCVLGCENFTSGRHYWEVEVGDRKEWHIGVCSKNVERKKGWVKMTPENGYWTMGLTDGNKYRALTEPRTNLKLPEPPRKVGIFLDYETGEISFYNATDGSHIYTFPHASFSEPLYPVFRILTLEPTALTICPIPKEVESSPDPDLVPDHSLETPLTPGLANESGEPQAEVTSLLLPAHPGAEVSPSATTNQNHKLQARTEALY
UniProt P09038: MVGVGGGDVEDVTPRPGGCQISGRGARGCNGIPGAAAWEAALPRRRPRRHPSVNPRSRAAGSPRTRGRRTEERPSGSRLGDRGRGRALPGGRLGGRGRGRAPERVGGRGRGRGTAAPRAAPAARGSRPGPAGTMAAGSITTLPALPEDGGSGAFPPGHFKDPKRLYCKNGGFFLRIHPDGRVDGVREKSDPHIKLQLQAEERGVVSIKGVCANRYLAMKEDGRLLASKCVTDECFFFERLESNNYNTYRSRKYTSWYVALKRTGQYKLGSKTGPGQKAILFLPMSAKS

In this assay the target is 3 × Flag-BTN3A3 (Butyrophilin Subfamily 3 Member A3), expressed in NIH:OVCAR-3 cells (UniProt O00478). The assay is described as follows: affinity purification with mass spectrometry; 3 × Flag-BTN3A3 transfected into NIH:OVCAR-3 cells; lysate immunoprecipitated with Flag-tag antibody, SDS-PAGE, Coomassie-stained gel cut and analysed by mass spectrometry; control plasmid with 3 × Flag.

“Fibroblast Growth Factor 2 (FGF2), endogenous (from UniProt P09038)”: the binding entry is on record as “binds”.

(Values after publication PMC9428752.)
